Test results as given in publication PMC5552922.
For some of these results: No signal at the amounts used counts as a negative. Where a protein sequence is shown, tags need not be part of it. For some of these results: For at least one entry, the source does not settle the construct or the ends of the probe. For some of these results: At least one verdict was read from the data and is not stated in words by the source.

Experiments:
[1] = target: T1, DdrOC (DdrO) (Deinococcus deserti) (UniProt C1CYP4); experiment: EMSA; settings: EMSA: 10 mM Tris-HCl pH 7.4, 60 mM NaCl, 1 mM DTT, 5% glycerol, 200 ng DNA in 20 ul, 30 min room temperature, 5% PAGE in TAE at 4 C, ethidium bromide, recombinant protein, protein details: untagged (His6-SUMO removed by SUMO protease), probe letters rebuilt from the primers and the genome
T1 sequence (looked up, limits assumed): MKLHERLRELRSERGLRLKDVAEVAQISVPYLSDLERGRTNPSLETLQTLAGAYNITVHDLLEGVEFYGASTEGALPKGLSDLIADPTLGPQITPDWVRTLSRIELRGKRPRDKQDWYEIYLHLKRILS

[2] = target: T2, DdrOC cleaved by IrrE (Deinococcus deserti) (UniProt C1CYP4); experiment: EMSA; settings: DdrO preincubated with IrrE (1.7 uM each) before DNA; EMSA: 10 mM Tris-HCl pH 7.4, 60 mM NaCl, 1 mM DTT, 5% glycerol, 200 ng DNA in 20 ul, 30 min room temperature; 5% PAGE in TAE at 4 C, ethidium bromide; recombinant protein; residues 1-106; protein details: untagged; probe letters rebuilt from the primers and the genome
T2 sequence (looked up): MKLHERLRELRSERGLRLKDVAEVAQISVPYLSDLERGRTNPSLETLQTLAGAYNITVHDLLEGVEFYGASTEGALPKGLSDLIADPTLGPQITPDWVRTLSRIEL

Row | Sequence | binding result ([1]; 0.8 uM DdrO, 57 nM DNA) | binding result ([1]; 0.8 uM DdrO, 64 nM DNA) | binding result ([1]; DdrO preincubated with inactive IrrE-E83Q (1.7 uM each) before DNA) | binding result [2]
1 | TATAGGTACCGGTACTCCTTCCTGTCCGACAGCAGACAGCGAGGCAAAGCATGAATAGTCGGTCTTAAGGGGGTAAAAGCCTTCTTGATTACGATCATAGCAGATCGTCTCGTGGTGGGCAAGAAGAACTCCTCTCTATTCTGTATTGACCGTACCGGGAAGCGGTGTTACACTCCAACCAAGGGTGCCCGATTCTGCCTACAGGCAAACGCTCCCCCAGGCGGCCCGCCCGGTCAGCGCACAGTCCCGGTCGCTCAAAGCTGCAGTATC (double strand) [ddrOC-ddrQ intergenic region] | binds |  |  | 
2 | TCTGGGTACCGTGAGCTATGGACCCTCGGCCTGCCGCGGCTACGGCGTCTACACGCGCGTCAACGGCTATATCAACTGGATCTATCAGCAGACAGGAATTGGCGCACAGTAATTCGAATTGTTTGGACTACCCCTGGCTAGAGCTGGGGGTTTTCCACGTTCGGGAGCGCAAAAACCAACCGATAATCACCTTACTCGGAAGAGGAATTACGCCTTGACCAGAATTCCATTCTGTTATAAACTAAATCCATCTGCAGGAGCGATGTACAG (double strand) [ddrA promoter region] |  | binds | binds | no binding
